Laboratory results as given in paper PMC10897394.

Biological target: T1, GFP-ROT4(WT) (Arabidopsis thaliana) (UniProt Q7XXN8)
T1 sequence (chain, S-acylated in plant cells, C42 the predominant S-acylation site): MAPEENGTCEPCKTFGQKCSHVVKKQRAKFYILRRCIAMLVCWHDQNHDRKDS
Experiment: affinity purification with mass spectrometry; lysates of ten-day-old GFP and GFP-ROT4 overexpressing seedlings, anti-GFP Agarose, 4 °C 2 h; IP buffer 50 mM Tris-HCl pH 7.4, 150 mM NaCl, 1 mM MgCl2, 10% glycerol, 0.5% Nonidet P-40; GFP vector plants as control

binding: binds
B1: BSK5 (BRASSINOSTEROID-… KINASE 5) (enzyme, UniProt Q9FIL1 1-489)
chain: MGPRCSKLSLCWWPTHLKSTHNEASDLDNGTDDLPSFTEFSFDQLRAATCGFSTDSIVSEHGVKAPNVVYKGRLEDDRWIAVKRFNRSAWPDTRQFLEEAKAVGQLRNERLANLIGFCCEGDERLLVAEFMPFETLSKHLFHWDSQPMKWSMRLRVALYLAQALEYCSSKGRALYHDLNAYRILFDQDGNPRLSCFGLMKNSRDGKSYSTNLAFTPPEYLRTGRVIPESVVYSFGTLLLDLLSGKHIPPSHALDLIRGKNFLMLMDSCLDGHFSNDDGTDLVRLASRCLQYEARERPNVKSLVSSLAPLQKETDIPSHVLMGIPHGAASPKETTSLTPLGDACSRHDLTAIHEILEKVGYKDDEGVANELSFQVWTDQIQETLNSKKQGDAAFKGKDFVTAVECYTQFIEDGTMVSPTVFARRCLCYLMSNMPQEALGDAMQAQVVSPEWPTAFYLQAAALFSLGMDKDACETLKDGTSLEAKKHNNRN

No constants are given. Whether binding was seen depends on the method and setting. In cells and extracts the contact can be indirect. A yes stands for co-enrichment or nearness to the bait. Other partners may have been found. Tags and fused reporters may be left off the sequences shown.
